Results on two molecules are retold here after publication PMC7496117, “A zinc finger protein BBX19 interacts with ABF3 to affect drought tolerance negatively in chrysanthemum”.

These are yes or no findings as the source states them, for the method shown. For some assays here: Binding seen in cells or lysates may run through a third protein. For some assays here: Where a sequence is shown, tags or fusion partners need not be part of it.

The target of experiment [1] is T1, AtBBX19 (BiFC construct) (Arabidopsis thaliana) (UniProt C0SVM5).
T1 sequence: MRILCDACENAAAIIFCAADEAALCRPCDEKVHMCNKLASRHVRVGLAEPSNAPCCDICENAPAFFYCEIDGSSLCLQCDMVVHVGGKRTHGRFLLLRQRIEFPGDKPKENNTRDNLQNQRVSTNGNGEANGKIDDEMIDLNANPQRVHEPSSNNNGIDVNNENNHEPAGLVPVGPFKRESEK
The experiment is described as follows: split reporter; BiFC with YFP^N and YFP^C fusions co-infiltrated by A. tumefaciens GV3101 into N. benthamiana leaves; YFP fluorescence by confocal microscopy 60 h after infiltration.

The target of experiment [2] is T2, AtBBX19 (BD fusion) (Arabidopsis thaliana) (UniProt C0SVM5).
T2 sequence: T1 sequence
The experiment is described as follows: two-hybrid; Matchmaker GAL4 system, yeast strain Y2HGold; bait in pGBKT7 (BD), prey in pGADT7 (AD); growth on SD/-Trp-Leu, then spot assay on SD/-Trp-Leu-His-Ade.

B1: AtABF3 (BiFC construct) (protein, UniProt Q9M7Q3 1-454)
chain: MGSRLNFKSFVDGVSEQQPTVGTSLPLTRQNSVFSLTFDEFQNSWGGGIGKDFGSMNMDELLKNIWTAEESHSMMGNNTSYTNISNGNSGNTVINGGGNNIGGLAVGVGGESGGFFTGGSLQRQGSLTLPRTISQKRVDDVWKELMKEDDIGNGVVNGGTSGIPQRQQTLGEMTLEEFLVRAGVVREEPQPVESVTNFNGGFYGFGSNGGLGTASNGFVANQPQDLSGNGVAVRQDLLTAQTQPLQMQQPQMVQQPQMVQQPQQLIQTQERPFPKQTTIAFSNTVDVVNRSQPATQCQEVKPSILGIHNHPMNNNLLQAVDFKTGVTVAAVSPGSQMSPDLTPKSALDASLSPVPYMFGRVRKTGAVLEKVIERRQKRMIKNRESAARSRARKQAYTMELEAEIAQLKELNEELQKKQVEIMEKQKNQLLEPLRQPWGMGCKRQCLRRTLTGPW
As to B1, in experiment [1], the binding entry is “no binding”.

B2: AtABF3 (AD fusion) (protein, UniProt Q9M7Q3 1-454)
chain: B1 chain
Take B2: the binding result in experiment [2] is recorded as “no binding”.
